Data source: PubChem BioAssay AID1259405 (NCATS, 2018)
Shown is an unselected part of about 50,000 reagents. In the full data, about 4,000 (8%) are marked active. 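Mouse siRNA library applied to hamster cells; one well for each siRNA.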 Unmarked entries are inactive. The numbers tell different reagents against one gene apart.

Aim: 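Mouse-designed siRNAs used to find CHO productivity engineering targets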 (primary screen)
Cells: Chinese hamster CHO-K1 ovary cells with stable secreted eGFP expression
Reagent: single siRNA against mouse genes, 0.8 pmol siRNA per well (2 µl of 400 nM stock)
Timing: 3 days
Measured: 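Percent of the per-plate non-targeting control median for intracellular GFP per well by laser scanning cytometry and for cell viability by ATP luminescence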
Direction: GFP, % of control: higher = more GFP per well, higher productivity; viability (ATP), % of control: higher = more viable cells (more ATP)
Call rule: 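Called active when intracellular GFP, relative to negative control, is at or above 120%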

Tspan5 (GeneID 56224) #1 — GFP, % of control: 65.9; viability (ATP), % of control: 74
Tspan5 (GeneID 56224) #2 — GFP, % of control: 112; viability (ATP), % of control: 90.6
Tspan5 (GeneID 56224) #3 — GFP, % of control: 46.9; viability (ATP), % of control: 69.9
Kbtbd7 (GeneID 211255) #1 — GFP, % of control: 55.7; viability (ATP), % of control: 59.8
Kbtbd7 (GeneID 211255) #2 — GFP, % of control: 77.5; viability (ATP), % of control: 73.8
Kbtbd7 (GeneID 211255) #3 — GFP, % of control: 62.2; viability (ATP), % of control: 73
Or5w8 (GeneID 258631) #1 — GFP, % of control: 66; viability (ATP), % of control: 53.1
Or5w8 (GeneID 258631) #2 — GFP, % of control: 82.1; viability (ATP), % of control: 81.9
Or5w8 (GeneID 258631) #3 — GFP, % of control: 64.8; viability (ATP), % of control: 70.4
Cdc42ep1 (GeneID 104445) #1 — GFP, % of control: 74.2; viability (ATP), % of control: 92.7
Cdc42ep1 (GeneID 104445) #2 — GFP, % of control: 66.8; viability (ATP), % of control: 71.3
Cdc42ep1 (GeneID 104445) #3 — GFP, % of control: 80.3; viability (ATP), % of control: 104
Trim26 (GeneID 22670) #1 — GFP, % of control: 62.8; viability (ATP), % of control: 52.7
Trim26 (GeneID 22670) #2 — GFP, % of control: 112; viability (ATP), % of control: 91
Trim26 (GeneID 22670) #3 — GFP, % of control: 83.4; viability (ATP), % of control: 107
Rpl11 (GeneID 67025) #1 — GFP, % of control: 32.8; viability (ATP), % of control: 44.1
Rpl11 (GeneID 67025) #2 — GFP, % of control: 53.1; viability (ATP), % of control: 36.3
Rpl11 (GeneID 67025) #3 — GFP, % of control: 61; viability (ATP), % of control: 62.7
Syt16 (GeneID 238266) #1 — GFP, % of control: 114; viability (ATP), % of control: 80
Syt16 (GeneID 238266) #2 — GFP, % of control: 73.5; viability (ATP), % of control: 76.1
Syt16 (GeneID 238266) #3 — GFP, % of control: 65.5; viability (ATP), % of control: 65.9
Aktip (GeneID 14339) #1 — GFP, % of control: 82.4; viability (ATP), % of control: 86.3
Aktip (GeneID 14339) #2 — GFP, % of control: 85.2; viability (ATP), % of control: 94.9
Aktip (GeneID 14339) #3 — GFP, % of control: 51.1; viability (ATP), % of control: 58.1

Continued; the last 3 above are carried over.
Aktip (GeneID 14339) #1 — GFP, % of control: 82.4; viability (ATP), % of control: 86.3
Aktip (GeneID 14339) #2 — GFP, % of control: 85.2; viability (ATP), % of control: 94.9
Aktip (GeneID 14339) #3 — GFP, % of control: 51.1; viability (ATP), % of control: 58.1
Atp6v0a2 (GeneID 21871) #1 — GFP, % of control: 74.3; viability (ATP), % of control: 72.3
Atp6v0a2 (GeneID 21871) #2 — GFP, % of control: 24.2; viability (ATP), % of control: 8.87
Atp6v0a2 (GeneID 21871) #3 — GFP, % of control: 81.8; viability (ATP), % of control: 59.6
Xkr5 (GeneID 319581) #1 — GFP, % of control: 62.1; viability (ATP), % of control: 71.7
Xkr5 (GeneID 319581) #2 — GFP, % of control: 71.2; viability (ATP), % of control: 88
Xkr5 (GeneID 319581) #3 — GFP, % of control: 97.9; viability (ATP), % of control: 106
Hsf3 (GeneID 245525) #1 — GFP, % of control: 76.8; viability (ATP), % of control: 77.4
Hsf3 (GeneID 245525) #2 — GFP, % of control: 31; viability (ATP), % of control: 72
Hsf3 (GeneID 245525) #3 — GFP, % of control: 64.9; viability (ATP), % of control: 81.5
Izumo4 (GeneID 71564) #1 — GFP, % of control: 85.4; viability (ATP), % of control: 77
Izumo4 (GeneID 71564) #2 — GFP, % of control: 47.6; viability (ATP), % of control: 64.9
Izumo4 (GeneID 71564) #3 — GFP, % of control: 84.4; viability (ATP), % of control: 88
Srl (GeneID 106393) #1 — GFP, % of control: 98.3; viability (ATP), % of control: 115
Srl (GeneID 106393) #2 — GFP, % of control: 127 (active); viability (ATP), % of control: 87.7
Ppp6r2 (GeneID 71474) #1 — GFP, % of control: 86.9; viability (ATP), % of control: 35.5
Ppp6r2 (GeneID 71474) #2 — GFP, % of control: 57; viability (ATP), % of control: 76
Ppp6r2 (GeneID 71474) #3 — GFP, % of control: 110; viability (ATP), % of control: 103
